# Assay results as given in the supplement of paper PMC12009310.
# Where a name gives a salt, the structure may show the parent alone. ± gives the standard deviation of the averaged measurements. This is one part of the list. Plates or batches differ in their baseline, so values are only roughly comparable.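 The cells are a mouse kidney inner medullary collecting duct line, silenced either for the ciliary gene Rpgrip1l or with a non-targeting control siRNA.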
# System: mIMCD3
# Assay: robust z score of cilia incidence (% cells with single cilium) vs plate controls; higher = more ciliated cells
# Settings: 10 µM; 48 h; siRNA: siScr
row,Compound,robust z score of cilia incidence
1,COc1ccc(C2CC(c3c(O)cc(C)oc3=O)=NCCS2)c(OC)c1 (stereo not drawn),-18.2 ± 14
2,CC1(C)C[C@@H]1C(=O)N/C(=C\CCCCSC[C@H](N)C(=O)O)C(=O)O [Cilastatin sodium],-0.0211 ± 1.8
3,O=C(O)CCc1ccc(NCc2cccc(Oc3ccccc3)c2)cc1,-3.94 ± 6.2
4,COc1ccccc1N1CCN(CCN2C(=O)CC3(CCCC3)CC2=O)CC1 [BMY 7378 dihydrochloride],-7.41 ± 3.4
5,CS(=O)(=O)CCNCc1nc(-c2ccc3ncnc(Nc4ccc(OCc5cccc(F)c5)c(Cl)c4)c3c2)cs1,-15 ± 1.1
6,C[C@@]1(O)[C@H](O)[C@@H](CO)O[C@H]1n1cnc2c(NC3CCCC3)nc(Cl)nc21,-1.11 ± 1.1
7,CN/C(=N\c1ccc(C2=NNC(=O)CC2C)cc1)NC#N (stereo not drawn) [Siguazodan],1.09 ± 0.38
8,COc1ccc(CCN(C)CCCOc2ccc(S(=O)(=O)c3c(C(C)C)c4ccccc4n3C)cc2)cc1OC,-21.5 ± 13
9,C[N+](C)(C)CC[N+]1(C)Cc2c(Cl)c(Cl)c(Cl)c(Cl)c2C1 [Chlorisondamine diiodide],-0.335 ± 0.23
10,CCCCc1nc2ccn(Cc3cccs3)c(=O)c2n1Cc1ccc(-c2ccccc2-c2nn[nH]n2)cc1,-6.94 ± 2.1
11,CC(C)[C@H](CO)Nc1nc(Nc2cc(N)cc(Cl)c2)c2ncn(C(C)C)c2n1 [Aminopurvalanol A],-20 ± 7.8
12,Cn1cc(C2=C(c3ccc(Cl)cc3Cl)C(=O)NC2=O)c2ccccc21,0.389 ± 1.6
13,COc1cc2nc(N3CCN(C(=O)C4CCCO4)CC3)nc(N)c2cc1OC (stereo not drawn) [Terazosin hydrochloride],0.784 ± 0.84

# Part of the list above in a different format:
row	Compound	robust z score of cilia incidence
7	CN/C(=N\c1ccc(C2=NNC(=O)CC2C)cc1)NC#N (stereo not drawn) [Siguazodan]	1.09 ± 0.38
8	COc1ccc(CCN(C)CCCOc2ccc(S(=O)(=O)c3c(C(C)C)c4ccccc4n3C)cc2)cc1OC	-21.5 ± 13
9	C[N+](C)(C)CC[N+]1(C)Cc2c(Cl)c(Cl)c(Cl)c(Cl)c2C1 [Chlorisondamine diiodide]	-0.335 ± 0.23
